Earlier results in patent US7608249B2, “Enhanced substrate imaging by reversible binding to a paramagnetic complex” (Bracco Imaging S.p.A., priority 2001, dated 2009).
For at least one compound, name, drawing or mass did not settle the structure.

Conditions: cited from earlier work

## O=C([O-])CN1CCNCCN(CC(=O)[O-])CCN(CC(=O)[O-])CC1.[Gd+3] [GdDO3A]
  formation constant: ~10^21
